Laboratory results: doi:10.1101/051672
Where two headings read alike, the source gives them in different places. These are yes or no findings as the source states them, for the method shown. Binding calls can cover weak binding; strength is not graded here. Tags and fused reporters may be left off the sequences shown.

Tests used:
Experiment in all cases: TIRF microscopy of purified fluorescent protein on microtubules
[1] = target: Microtubules polymerised from S2 tubulin (Drosophila (endogenous in S2 cells))
EB1 (Drosophila) = target: EB1 (Drosophila)
[2] = target: Microtubules polymerised from S2 tubulin (Drosophila (endogenous in S2 cells)); remark: listed apart in the source

Measured: binding

B1: GFP-CLASP^Mast/Orbit (wild-type) (protein, UniProt Q9NBD7 1-1491)
chain: MAYRKPSDLDGFIQQMPKADMRVKVQLAEDLVTFLSDDTNSIVCTDMGFLIDGLMPWLTGSHFKIAQKSLEAFSELIKRLGSDFNAYTATVLPHVIDRLGDSRDTVREKAQLLLRDLMEHRVLPPQALIDKLATSCFKHKNAKVREEFLQTIVNALHEYGTQQLSVRVYIPPVCALLGDPTVNVREAAIQTLVEIYKHVGDRLRPDLRRMDDVPASKLAMLEQKFDQVKQEGLLLPSALKNTNGNGVGLDEADNIGLRERPTRMIKRPLHSAVSSSLRPKPNVNDVTGDAGAVTMESFESSFEVVPQLNIFHAKDMDDIYKQVLVIISDKNADWEKRVDALKKIRALLILSYHTQPQFVAVQLKELSLSFVDILKEELRSQVIREACITIAYMSKTLRNKLDAFCWSILEHLINLIQNSAKVIASASTIALKYIIKYTHAPKLLKIYTDTLNQSKSKDIRSTLCELMVLLFEEWQTKALERNATVLRDTLKKSIGDADCDARRHSRYAYWAFRRHFPELADQIYGTLDIAAQRALEREREGGGGGGTGTGTGTAPETRRTVSRIGRTPGTLQKPTPSMRSISAVDTAAAQRAKVRAQYTLYSRQRKPLGPNNSNQASMTGAAASGSLPRPRLNSNSGGTPATTPGSVTPRPRGRAGVSQSQPGSRSTSPSTKLRDQYGGIGNYYRGATGAIPKKASGIPRSTASSRETSPTRSGGGLMKRSMYSTGAGSRRTPERNNPVRPSAAARLLAQSREAEHTLGVGDDGQPDYVSGDYMRSGGMRMGRKLMGRDESDDIDSEASSVCSERSFDSSYTRGNKSNYSLSGSHTRLDWSTQRAPFDDIETIIQFCASTHWSERKDGLISLTQYLADGKELTQQQLKCVLDMFRKMFMDTHTKVYSLFLDTVTELILVHANELHEWLFILLTRLFNKLGTDLLNSMHSKIWKTLQVVHEYFPTQLQLKELFRIISDSTQTPTTKTRIAILRFLTDLANTYCKSSDFPSDQSQACERTVLKLAQLAADQKSMELRSQARSCLVALYNLNTPQMTLLLADLPKVYQDSARSCIHSHMRRQSQSCNSGANSPSSSPLSSSSPKPLQSPSVGPFASLQSHHHQLSISSTSPRSRQSSVEQELLFSSELDIQHNIQKTSEEIRHCFGGQYQTALAPNGFNGHLQYHDQGQQDSCASLSSNSKTQSSANTTQSNTPESATMRLDNLERERTTQNAKSPTDDAKVITVSINMAENGELILASNLMESEVVRVALTLTKDQPVELLQTSLTNLGICIKGGNCELPNKHFRSIMRMLLNILEAEHTDVVIAGLHVLSKIMRSNKMRHNWMHFLELILLKIIQCYQHSKEALRDIDSMIPRIAPSLPLDLSINIVNPVIATGEFPTNLCAIKILLEVTEHHGSEITDAHLDIVFPNLARSADDTQSMVRKAAVFCIVKLYFVLGEEKVKPKLSVLNPSKVRLLNVYIEKQRNCISGGGSSTKNSSAASSS
binds: [1] | EB1 (Drosophila) | [2]
